Measurements reported in PubChem BioAssay AID1259308 (NCATS, 2017).
This is a random part of about 59,000 reagents tested. About 1,510 of all reagents (2.6%) count as active. 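Calls use total luciferase alone and ignore viability, so some active siRNAs may act by altering cell number.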 Unmarked entries are inactive.

- Screen: 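Genes whose loss raises luciferase production in HEK293 cells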 (primary screen)
- Cell system: human HEK293 embryonic kidney cells stably expressing firefly luciferase (HEK-CMV-Luc2-Hygro)
- Knock-down reagent: single siRNA against human genes, 0.8 pmol siRNA per well
- Timing: 72 h
- Read-out: 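Luciferase light (ONE-Glo) measured on one replicate plate set and viability (CellTiter-Glo) on the other, scaled to a negative control siRNA, with robust z-scores and luciferase per cell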
- Reading the numbers: total luciferase, z-score and total luciferase, % of control: higher = more reporter protein produced; luciferase per cell, z-score: higher = more reporter output per viable cell; viable cells, % of control: higher = more viable cells
- Hit rule: 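An siRNA counts as active if its total luciferase robust z-score exceeds 3; genes with two or more such siRNAs out of three were retested with fresh siRNAs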
- Calls: active = raised luciferase; inactive = no rise

| target | PubChem SID | total luciferase, z-score | total luciferase, % of control | luciferase per cell, z-score | viable cells, % of control |
| --- | --- | --- | --- | --- | --- |
| NOCT (nocturnin) | SID160737041 | 2.64 | 134 | 1.45 | 102 |
| NOCT (nocturnin) | SID160737042 | -1.5 | 52 | -1.83 | 94.2 |
| NOCT (nocturnin) | SID160737044 | 0.365 | 89.1 | 0.464 | 88.2 |
| FAM120A (family with sequence similarity 120 member A) | SID160735687 | 0.172 | 85.3 | -0.0149 | 95.7 |
| FAM120A (family with sequence similarity 120 member A) | SID160735688 | -0.134 | 79.2 | -0.377 | 97.8 |
| FAM120A (family with sequence similarity 120 member A) | SID160735689 | -0.736 | 67.2 | -0.662 | 89.5 |
| URM1 (ubiquitin related modifier 1) | SID160735007 | -0.671 | 68.5 | -0.151 | 79.7 |
| URM1 (ubiquitin related modifier 1) | SID160750866 | 0.231 | 86.5 | 0.946 | 75.3 |
| URM1 (ubiquitin related modifier 1) | SID160750867 | -0.863 | 64.7 | -1.26 | 101 |
| RNF26 (ring finger protein 26) | SID160748655 | -0.74 | 67.2 | -0.696 | 90.2 |
| RNF26 (ring finger protein 26) | SID160748656 | -0.159 | 78.7 | 0.207 | 83.3 |
| RNF26 (ring finger protein 26) | SID160748657 | -1.85 | 45.1 | -1.54 | 75.7 |
| FAAH2 (fatty acid amide hydrolase 2) | SID160759668 | -0.367 | 74.6 | -0.157 | 86.9 |
| FAAH2 (fatty acid amide hydrolase 2) | SID160759669 | 0.954 | 101 | 1.2 | 82.2 |
| FAAH2 (fatty acid amide hydrolase 2) | SID160759670 | 0.753 | 96.9 | 0.804 | 87.6 |
| PLEKHA3 (pleckstrin homology domain containing A3) | SID160748341 | 0.000753 | 81.9 | 0.127 | 88.5 |
| PLEKHA3 (pleckstrin homology domain containing A3) | SID160748342 | 1.17 | 105 | 1.42 | 80.8 |
| PLEKHA3 (pleckstrin homology domain containing A3) | SID160748343 | 0.209 | 86 | 0.295 | 89 |
| RFWD3 (ring finger and WD repeat domain 3) | SID160743089 | -0.601 | 69.9 | -0.61 | 91.7 |
| RFWD3 (ring finger and WD repeat domain 3) | SID160743090 | 1.91 | 120 | 2.33 | 72.5 |
| RFWD3 (ring finger and WD repeat domain 3) | SID160743091 | 0.668 | 95.2 | 0.471 | 93.9 |
| SPMIP10 (sperm microtubule inner protein 10) | SID160766160 | 1.52 | 112 | 3.69 | 47.5 |
| SPMIP10 (sperm microtubule inner protein 10) | SID160766161 | -1.57 | 50.8 | -2.01 | 96.4 |
| SPMIP10 (sperm microtubule inner protein 10) | SID160766162 | -1.29 | 56.3 | 0.087 | 61.5 |
| NEU1 (neuraminidase 1) | SID160731284 | -1.15 | 58.9 | -0.941 | 84.4 |
| NEU1 (neuraminidase 1) | SID160777969 | 0.749 | 96.8 | -0.162 | 113 |
| NEU1 (neuraminidase 1) | SID160777970 | -0.0456 | 81 | 0.734 | 74.6 |
| HDAC7 (histone deacetylase 7) | SID160741013 | 0.453 | 90.9 | 1.13 | 75.4 |
| HDAC7 (histone deacetylase 7) | SID160741014 | -1.36 | 54.9 | -0.82 | 76.1 |
| HDAC7 (histone deacetylase 7) | SID160741015 | -0.0853 | 80.2 | 0.698 | 74.6 |
| FSD1 (fibronectin type III and SPRY domain containing 1) | SID160748775 | 0.983 | 101 | 0.439 | 101 |
| FSD1 (fibronectin type III and SPRY domain containing 1) | SID160748776 | 1.75 | 117 | 1.65 | 84.4 |
| FSD1 (fibronectin type III and SPRY domain containing 1) | SID160748777 | 0.77 | 97.2 | 0.675 | 90.9 |
| PC (pyruvate carboxylase) | SID160713877 | 0.559 | 93 | 1.24 | 74.9 |
| PC (pyruvate carboxylase) | SID160713878 | 1.14 | 105 | 1.57 | 77.3 |
| PC (pyruvate carboxylase) | SID160713880 | -0.199 | 77.9 | -0.0144 | 87.4 |
| MED8 (mediator complex subunit 8) | SID160754772 | -1.64 | 49.2 | -1.17 | 74.8 |
| MED8 (mediator complex subunit 8) | SID160754774 | -2.06 | 40.9 | -2.01 | 77.7 |
| MED8 (mediator complex subunit 8) | SID160754775 | -0.724 | 67.5 | -1.33 | 107 |

Limited to “viable cells, % of control” (6 entries from above):
SPMIP10 (sperm microtubule inner protein 10) [SID160766161] = 96.4
SPMIP10 (sperm microtubule inner protein 10) [SID160766162] = 61.5
NEU1 (neuraminidase 1) [SID160731284] = 84.4
NEU1 (neuraminidase 1) [SID160777969] = 113
NEU1 (neuraminidase 1) [SID160777970] = 74.6
HDAC7 (histone deacetylase 7) [SID160741013] = 75.4
